# No constants are given. Whether binding was seen depends on the method and setting. In cells and extracts the contact can be indirect. A yes stands for co-enrichment or nearness to the bait. Other partners may have been found.
# The chains behind the UniProt entries cited, without tags or fusion partners.
# UniProt Q9H4L4: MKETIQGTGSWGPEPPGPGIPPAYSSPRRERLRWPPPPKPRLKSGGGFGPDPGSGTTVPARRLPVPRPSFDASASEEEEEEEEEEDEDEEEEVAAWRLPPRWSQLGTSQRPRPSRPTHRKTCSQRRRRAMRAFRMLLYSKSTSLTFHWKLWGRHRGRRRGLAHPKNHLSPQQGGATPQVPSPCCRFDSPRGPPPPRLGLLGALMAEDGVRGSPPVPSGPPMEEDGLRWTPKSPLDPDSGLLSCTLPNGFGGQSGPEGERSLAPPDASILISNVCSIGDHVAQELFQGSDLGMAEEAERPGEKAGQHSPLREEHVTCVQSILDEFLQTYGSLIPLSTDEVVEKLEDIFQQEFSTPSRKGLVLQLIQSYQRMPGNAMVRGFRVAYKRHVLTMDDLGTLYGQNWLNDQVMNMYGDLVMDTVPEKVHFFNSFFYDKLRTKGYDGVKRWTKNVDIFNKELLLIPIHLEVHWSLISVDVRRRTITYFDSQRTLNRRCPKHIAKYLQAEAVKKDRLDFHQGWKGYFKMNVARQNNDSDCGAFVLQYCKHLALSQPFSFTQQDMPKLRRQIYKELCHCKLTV
# B1: dyskerin pseudouridine synthase (DKC1), endogenous (protein, UniProt O60832 1-514)
# chain: MADAEVIILPKKHKKKKERKSLPEEDVAEIQHAEEFLIKPESKVAKLDTSQWPLLLKNFDKLNVRTTHYTPLACGSNPLKREIGDYIRTGFINLDKPSNPSSHEVVAWIRRILRVEKTGHSGTLDPKVTGCLIVCIERATRLVKSQQSAGKEYVGIVRLHNAIEGGTQLSRALETLTGALFQRPPLIAAVKRQLRVRTIYESKMIEYDPERRLGIFWVSCEAGTYIRTLCVHLGLLLGVGGQMQELRRVRSGVMSEKDHMVTMHDVLDAQWLYDNHKDESYLRRVVYPLEKLLTSHKRLVMKDSAVNAICYGAKIMLPGVLRYEDGIEVNQEIVVITTKGEAICMAIALMTTAVISTCDHGIVAKIKRVIMERDTYPRKWGLGPKASQKKLMIKQGLLDKHGKPTDSTPATWKQEYVDYSESAKKEVVAEVVKAPQVVAEAAKTAKRKRESESESDETPPAAPQLIKKEKKKSKKDKKAKAGLESGAEPGDGDSDTTKKKKKKKKAKEVELVSE
# Target: SUMO specific peptidase 3 (SENP3), endogenous (human (endogenous in Patu-8988t)) (UniProt Q9H4L4)
# Assay: affinity purification with mass spectrometry; Patu-8988t cell lysate immunoprecipitated with control IgG or anti-SENP3 antibody and protein A/G agarose beads; Coomassie staining and mass spectrometry
binder,measurement,value
B1,binding,binds

# — PMC10307871
